Data: US20180273595A1
These are yes or no findings as the source states them, for the method shown. Some binding calls cover weakened binding; strength is not graded here.

Amino acid sequences for entries named in this document (tags omitted).
UniProt P11308: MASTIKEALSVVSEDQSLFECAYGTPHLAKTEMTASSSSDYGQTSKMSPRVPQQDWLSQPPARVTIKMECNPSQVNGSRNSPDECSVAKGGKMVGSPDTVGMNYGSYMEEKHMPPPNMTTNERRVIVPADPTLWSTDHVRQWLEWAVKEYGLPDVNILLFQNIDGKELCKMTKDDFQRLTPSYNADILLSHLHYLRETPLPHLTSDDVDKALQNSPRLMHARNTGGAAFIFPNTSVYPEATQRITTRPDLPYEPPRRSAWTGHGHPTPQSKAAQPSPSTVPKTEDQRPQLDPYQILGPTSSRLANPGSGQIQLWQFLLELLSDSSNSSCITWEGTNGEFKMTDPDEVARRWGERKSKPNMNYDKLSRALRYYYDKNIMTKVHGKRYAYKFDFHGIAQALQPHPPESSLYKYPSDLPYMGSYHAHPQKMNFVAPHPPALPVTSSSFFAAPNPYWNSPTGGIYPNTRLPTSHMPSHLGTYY

How the values were obtained:
[1] = target: recombinant His-tagged full-length ERG (UniProt P11308); test: OctetRED BLI
[2] = target: recombinant His-tagged full-length ERG (UniProt P11308); test: OctetRed, FIG. 14

binding [1] | binding [2] | Binder
binds |  | LSFGSLP [EIP2 synthetic peptide LSFGSLP]
 | binds | PYLFT (free N-terminus, amide at the C-terminus) [5PT-N (NH2-PYLFT-NH2)]
